# Results deposited as PubChem BioAssay AID720710 (VTT Finland, 2013)
# Screen: 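Knock-downs that leave cyclin E-high cells sensitive to replication stress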 (primary screen)
# System: human U-2 OS bone cancer cells, parental and a cyclin E (CCNE1) overexpressing line
# Knock-down reagent: single siRNA against human genes, 1 µM siRNA in the printed spot mix
# Time to read-out: 67 h
# Challenge: half the arrays: hydroxyurea 2 mM for 16 h, then 3 h recovery; other arrays untreated
# Measured: 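EdU click signal imaged per DAPI-stained nucleus at 67 h; each spot divided by its subgrid median, then z-scored relative to non-targeting control spots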
# Reading the numbers: EdU z-score, cyclin E line, hydroxyurea and EdU z-score, parental, hydroxyurea and EdU z-score, cyclin E line, untreated and EdU z-score, parental, untreated: higher = more DNA synthesis than non-targeting controls
# This is one part, drawn at random, of about 1,380 deposited reagents. 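One array per condition without replicates; hydroxyurea arrays received 2 mM for 16 h plus 3 h recovery.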 Reagents against one gene are numbered here.
gene knocked down,reagent,"EdU z-score, cyclin E line, hydroxyurea","EdU z-score, parental, hydroxyurea","EdU z-score, cyclin E line, untreated","EdU z-score, parental, untreated"
HUS1B,1,0.0786,-1.14,-3.39,-1.88
HUS1B,2,0.932,1.93,-1.86,-0.511
RAD23B,1,-1.17,-3.49,-0.737,0.389
RAD23B,2,-0.342,3.69,-0.558,0.498
DKC1,1,-0.769,0.658,-1.62,-0.0123
DKC1,2,-0.296,0.934,0.075,1.4
KAT5,1,-1.53,-2.11,-0.639,0.0862
KAT5,2,-0.149,1.79,-0.477,1.95
RPAIN,1,-0.565,-1.58,-2.65,-1.19
RPAIN,2,-0.294,2.29,-0.547,0.806
LOC651921,1,0.0146,0.425,-1.22,-1.85
LOC651921,2,0.64,2.23,-0.817,-1.19
UBE2A,1,-1.1,-2.79,-2.4,-0.652
UBE2A,2,-0.258,0.322,-0.957,0.546
MED1,1,0.272,-1.73,-0.188,-4.52
MED1,2,0.314,2.26,0.0243,-0.784
GADD45G,1,1.69,-0.487,-1.71,-0.629
GADD45G,2,2.21,1.08,-1.34,-0.137
IGHMBP2,1,-2.74,-5.24,-1.28,-0.927
IGHMBP2,2,0.198,-2.73,-0.779,1.25
PNKP,1,0.396,-1.19,-1.37,-1.04
PNKP,2,1.11,-0.456,0.168,-0.378
H2BC13,1,-1.66,-1.25,-2.83,-2.07
H2BC13,2,-1.03,1.57,-0.828,-0.574
NTHL1,1,2.41,-0.695,0.668,-1.95
NTHL1,2,2.69,1.77,1.34,0.185
RNF14,1,-2.48,-1.98,-1.76,-1.05
RNF14,2,-0.758,0.717,-1.32,-0.557
H4C8,1,-0.713,-0.451,-0.489,-1.73
H4C8,2,2.56,3.03,0.41,0.397
MNAT1,1,-1.69,-1.09,-1.23,-0.891
MNAT1,2,-1.36,0.181,-0.705,0.293
SATB1,1,-1.65,-2.5,-2.66,-2.35
SATB1,2,-1.27,1.58,-0.553,1.65
PTMS,1,-1.17,-1.39,-1.3,-0.463
PTMS,2,0.509,1.72,0.13,0.154
ATR,1,-0.34,-3,-0.00724,1.17
ATR,2,0.894,-1.83,1.97,3.25
RBBP7,1,-0.825,-1.73,-1.05,-0.291
RBBP7,2,0.583,2.28,-0.722,0.642
TRANK1,1,-2.97,-0.121,-1.26,-1.11
TRANK1,2,-0.391,2.17,-0.729,-0.0761
EXO1,1,-1.88,-0.518,-1.04,-0.251
EXO1,2,-0.522,1.64,-0.795,0.826
GINS2,1,0.576,-5.41,-1.57,-1.1
GINS2,2,1.62,0.622,-0.322,-0.789
POLA2,1,-1.1,-1.83,-1.52,-1.39
POLA2,2,-0.629,0.657,-0.246,1.12
MGMT,1,0.192,-1.97,-0.74,-0.436
MGMT,2,0.579,4.16,0.511,0.815
RAD51C,1,1.18,0.162,-1.53,0.909
RAD51C,2,2.08,1.57,0.0834,2.23
ZC2HC1A,1,0.975,-3.4,-1.81,0.714
ZC2HC1A,2,1.43,0.415,0.633,0.844
PPFIA2,1,0.616,-1.57,-1.37,-0.155
PPFIA2,2,1.84,2.69,0.892,0.347
CHD7,1,-0.734,-0.424,-2.54,-1.06
CHD7,2,0.876,2.29,-0.374,-0.512

8 entries from above in another layout:
{"gene knocked down": "KAT5", "reagent": 2, "EdU z-score, cyclin E line, hydroxyurea": -0.149, "EdU z-score, parental, hydroxyurea": 1.79, "EdU z-score, cyclin E line, untreated": -0.477, "EdU z-score, parental, untreated": 1.95}
{"gene knocked down": "RPAIN", "reagent": 1, "EdU z-score, cyclin E line, hydroxyurea": -0.565, "EdU z-score, parental, hydroxyurea": -1.58, "EdU z-score, cyclin E line, untreated": -2.65, "EdU z-score, parental, untreated": -1.19}
{"gene knocked down": "RPAIN", "reagent": 2, "EdU z-score, cyclin E line, hydroxyurea": -0.294, "EdU z-score, parental, hydroxyurea": 2.29, "EdU z-score, cyclin E line, untreated": -0.547, "EdU z-score, parental, untreated": 0.806}
{"gene knocked down": "LOC651921", "reagent": 1, "EdU z-score, cyclin E line, hydroxyurea": 0.0146, "EdU z-score, parental, hydroxyurea": 0.425, "EdU z-score, cyclin E line, untreated": -1.22, "EdU z-score, parental, untreated": -1.85}
{"gene knocked down": "LOC651921", "reagent": 2, "EdU z-score, cyclin E line, hydroxyurea": 0.64, "EdU z-score, parental, hydroxyurea": 2.23, "EdU z-score, cyclin E line, untreated": -0.817, "EdU z-score, parental, untreated": -1.19}
{"gene knocked down": "UBE2A", "reagent": 1, "EdU z-score, cyclin E line, hydroxyurea": -1.1, "EdU z-score, parental, hydroxyurea": -2.79, "EdU z-score, cyclin E line, untreated": -2.4, "EdU z-score, parental, untreated": -0.652}
{"gene knocked down": "UBE2A", "reagent": 2, "EdU z-score, cyclin E line, hydroxyurea": -0.258, "EdU z-score, parental, hydroxyurea": 0.322, "EdU z-score, cyclin E line, untreated": -0.957, "EdU z-score, parental, untreated": 0.546}
{"gene knocked down": "MED1", "reagent": 1, "EdU z-score, cyclin E line, hydroxyurea": 0.272, "EdU z-score, parental, hydroxyurea": -1.73, "EdU z-score, cyclin E line, untreated": -0.188, "EdU z-score, parental, untreated": -4.52}
